The labels stand for the following.
B1: tRNA (parent)
chain: GUUCCGUUGGCGUAAUGGUAACGCGUCUCCCUCCUAAGGAGAAGACUGCGGGUUCGAGUCCCGUACGGAACG

This sample is rich in variants without activity.

The series covers variants of B1. The series is described as follows: yeast fitness relative to wild type (ratio to wild type); higher = fitter; tRNA-Arg(CCU), competitive growth, 37 C, YPD. An outline of the steps: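 Start and end populations of a pooled competition were compared by 100-nucleotide paired-end sequencing of gene amplicons. The Saccharomyces cerevisiae strains carried tRNA-Arg(CCU) gene variants at the native genomic locus, synthesised with a 3% per-site mutation rate at 69 sites, and competed in YPD at 37°C for 24 hours in six parallel replicates. Darwinian fitness relative to wild type was based on the change in genotype frequencies. Genotypes required ≥ 100 starting reads, and estimates < 0.5 were set to 0.5.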
For C22G G41A G48C G68C, the yeast fitness was at most 0.5.

A21C G51C A69U: the yeast fitness was at most 0.5. For the variant C60A A69U, the yeast fitness stood at 0.746. With U28G C29A G41A C46G the figure was at most 0.5.

On to C27G C30U G39C A40U G44C U47A G48A A65C, for which the yeast fitness was at most 0.5. For C24U C55G G56C the value was at most 0.5; for G38C G41A G56C G63A, at most 0.5. For U2G A20C G38A the value was at most 0.5; for C11U A42C C60U, at most 0.5; for C4U C5G U8C U28G C34U U53A G56C, at most 0.5. With A14U C55G A57G the figure was at most 0.5. For C24U G67U, the yeast fitness came to 0.869. On to C11A C27U A57U, for which the yeast fitness was at most 0.5. For A21U C27G C29U U32C, the yeast fitness is at most 0.5. With C27U C46U G48A G68U the figure was at most 0.5; with C22U G25C C27G, at most 0.5. For G6C G23A C33U G44C the value was at most 0.5. For C5U U16C A43U C49U, the yeast fitness was at most 0.5. In the case of A15U C30U, the yeast fitness was 0.859.

Consider G18A A20C U47G G52A, for which the yeast fitness was at most 0.5. Turning to C24G C30A A42G C66A, the yeast fitness is at most 0.5. As for C31A G38A, the yeast fitness turned out to be 0.792.

In the case of G18A G56A C62U A70U, the yeast fitness was at most 0.5.

Turning to C5U A37U U53A C66U G67A, the yeast fitness is at most 0.5. For G6C C22A G41A G44C C49A the value was at most 0.5; for G10A U16A U35C C49G C55A, at most 0.5. On to G12A C30G C33G C34U A42U A65C, for which the yeast fitness is at most 0.5. For G25A G52U U54C the value was at most 0.5. With C4A C11U A21U G23A C62U U64C G67A the figure was at most 0.5. For C4U C30A G50U the value was 0.715.

Consider A21G A43U C49U U53C C61G, for which the yeast fitness was at most 0.5. With C27G G41A G67U the figure was 0.709; with C4U G9C C11G A14C U28A G63C, at most 0.5. For G17C G23C A43U C49A A70U the value was at most 0.5. With U7C C30U G67A the figure was at most 0.5. For the variant U19G C33U A42U C61U, the yeast fitness was at most 0.5. Regarding U2G G9C G12A C55U, the yeast fitness was at most 0.5.

For the variant C11G U35C A69C, the yeast fitness was at most 0.5.

A15U U16C G18C C29A C66A A69U: the yeast fitness is at most 0.5. For G10C G50A A70U the value was at most 0.5; for U13A G18C C27U, at most 0.5.

Consider C5G C30U G50C, for which the yeast fitness is at most 0.5. For A36G A40C G63C the value was at most 0.5; for G17C U54C C61U C62U C66A, at most 0.5.

Turning to C11G U53A C60U, the yeast fitness is at most 0.5. With U7A C60G A70C the figure was at most 0.5; with G41C G44A A57U, at most 0.5.

As for G12A C30A A37C G38C C55G A70U, the yeast fitness is at most 0.5. With C31G A45G U47A the figure was 0.893; with U19A U26C C30A A43C, at most 0.5; with U13C A14G A45G, at most 0.5. Consider A21G C22U C30G G51A A69U, for which the yeast fitness was 0.551. Regarding C24G A40G G50C, the yeast fitness amounted to 0.599. For C34A A57U G67C, the yeast fitness was determined as 0.605.

Consider U19C A21U C55U, for which the yeast fitness was at most 0.5. For G6C A20C C34G the value was at most 0.5; for C4G C30G G50U, at most 0.5. Regarding U13A C34G G50A C60G C61U, the yeast fitness is at most 0.5. As to U2C G6A G23A C27U A45C C60A, the yeast fitness turned out to be 0.605. As to U7C G12A A20C A21G C24A C27A A36C, the yeast fitness was at most 0.5. Regarding C5U C24U A42C A57U A70U, the yeast fitness is at most 0.5.

As to U7A C34A U35C, the yeast fitness was at most 0.5.

On to A42U A57U G67C, for which the yeast fitness is at most 0.5. With C5U A14C G41C the figure was 0.613; with A36G C62G, 0.905; with G41C G44C C55A, 0.563. For A20C G23C G56C A65C G68A, the yeast fitness was at most 0.5. With U19A U35A G44C G48C C55A C66G the figure was at most 0.5; with G6C C29A A42G U54A C60G G68A, at most 0.5; with A15U U19A G23C, at most 0.5.

As for A14C C49G G68U, the yeast fitness was at most 0.5. With U13C C27U U32C A69U the figure was at most 0.5; with G9A U47A U53C A57G C66U, at most 0.5. With U32C A43G C55U C66A the figure was at most 0.5; with C29G C55G A70G, at most 0.5. With C49A A65C the figure was 0.686; with G10C G25C C55A, 0.545; with U2C G23C C24U A36G A57U G63A, at most 0.5. In the case of G48A C62U, the yeast fitness is 1.01. For U32C C46U the value was 0.862. With A21U U32A C55G the figure was at most 0.5; with C11U A14C U16G C29A A57G G68C, at most 0.5; with C22U C24A A70U, at most 0.5. For C5U G25C C29A G56A the value was at most 0.5.

Values taken from the RNAGym collection of RNA variant scans (doi:10.1126/science.aae0568).
